Data taken from publication PMC10070344.
These are yes or no findings as the source states them, for the method shown. Binding seen in cells or lysates may run through a third protein. Some results given as binding are weak or reduced against the parent protein; the word gives no strength.

Chains of the proteins cited; added tags and fusions are not shown. Lines headed by an entry give the natural chain unless they say otherwise; changes in a name come on top.
UniProt P40337: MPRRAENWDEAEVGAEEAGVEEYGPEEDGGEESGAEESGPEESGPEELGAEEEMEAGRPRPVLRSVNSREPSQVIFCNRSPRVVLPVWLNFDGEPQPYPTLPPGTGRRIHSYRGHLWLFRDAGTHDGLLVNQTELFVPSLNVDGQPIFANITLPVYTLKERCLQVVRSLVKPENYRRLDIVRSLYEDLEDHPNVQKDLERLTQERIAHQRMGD

How the values were obtained:
FLAG-VHL (human) = FLAG-VHL (human) (UniProt P40337); experiment: co-IP; cells infected with indicated plasmids; lysates immunoprecipitated with anti-FLAG affinity gel, western blot; with or without depletion of PIN1 or ATRA
pVHL S80A (human) = pVHL S80A (human) (UniProt P40337); experiment: co-IP; cells transfected with indicated plasmids; lysates (NETN buffer) precipitated with S-protein agarose, western blot; some with CDK1 shRNA or RO-3306 for 24 h
[1] = target: pVHL WT (precipitated with S-protein agarose) (human) (UniProt P40337); experiment: as above

binding (FLAG-VHL (human)): binds
binding (pVHL S80A (human)): no binding
binding [1]: binds
B1: WD repeat and SOCS box-containing protein 1 (enzyme, UniProt Q9Y6I7 1-421)
chain: MASFPPRVNEKEIVRLRTIGELLAPAAPFDKKCGRENWTVAFAPDGSYFAWSQGHRTVKLVPWSQCLQNFLLHGTKNVTNSSSLRLPRQNSDGGQKNKPREHIIDCGDIVWSLAFGSSVPEKQSRCVNIEWHRFRFGQDQLLLATGLNNGRIKIWDVYTGKLLLNLVDHTEVVRDLTFAPDGSLILVSASRDKTLRVWDLKDDGNMMKVLRGHQNWVYSCAFSPDSSMLCSVGASKAVFLWNMDKYTMIRKLEGHHHDVVACDFSPDGALLATASYDTRVYIWDPHNGDILMEFGHLFPPPTPIFAGGANDRWVRSVSFSHDGLHVASLADDKMVRFWRIDEDYPVQVAPLSNGLCCAFSTDGSVLAAGTHDGSVYFWATPRQVPSLQHLCRMSIRRVMPTQEVQELPIPSKLLEFLSYRI
